Laboratory results: PubChem BioAssay AID1508597 (Cure First, 2020)
Screen: 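Genes whose silencing sensitises or protects ovarian cancer cells against rucaparib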 (primary screen). Cell system: human ovarian carcinoma lines grown from tumours: OCI-P5x (papillary serous) and OCI-C5x (clear cell). Reagent: siRNA pool against human genes, 1.25 pmol siRNA per well. Timing: 72 h or 96 h, depending on the cell culture. Treatment: rucaparib 20 µM (about IC30) or vehicle, present until read-out. Rucaparib or vehicle: Rucaparib. Cell line: OCI-C5x (clear cell). Measurement: 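ATP luminescence measured at 72 or 96 h according to the culture, then normalised and expressed as percent viability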. Scale: viability, normalised: higher = more viable cells remaining. Active means: 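Active when normalised viability falls below 80 percent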. Calls: active = viability under 80%; inactive = viability 80% or more.
Shown is a random part of the about 2,100 reagents, in one setting of the screen. 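Calls flag viability under 80% in either arm, not effects specific to rucaparib; the reference for percent is not stated.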 Entries without a mark were called inactive. Reagents against one gene are numbered here. The record does not give: the 100% reference.

target gene	reagent	technical replicate	viability, normalised (%)
GDPD3 (glycerophosphodiester phosphodiesterase domain containing 3)	1	1	60.8 (active)
GDPD3 (glycerophosphodiester phosphodiesterase domain containing 3)	1	2	49.2 (active)
GDPD3 (glycerophosphodiester phosphodiesterase domain containing 3)	1	3	39.6 (active)
ABL2 (ABL proto-oncogene 2, non-receptor tyrosine kinase)	1	1	80.1
ABL2 (ABL proto-oncogene 2, non-receptor tyrosine kinase)	1	2	53.5 (active)
ABL2 (ABL proto-oncogene 2, non-receptor tyrosine kinase)	1	3	75.2 (active)
RPS6KC1 (ribosomal protein S6 kinase C1)	1	1	58.9 (active)
RPS6KC1 (ribosomal protein S6 kinase C1)	1	2	67.6 (active)
RPS6KC1 (ribosomal protein S6 kinase C1)	1	3	56 (active)
SLX1A (structure-specific endonuclease subunit SLX1A)	1	1	43.3 (active)
SLX1A (structure-specific endonuclease subunit SLX1A)	1	2	33.4 (active)
SLX1A (structure-specific endonuclease subunit SLX1A)	1	3	48.6 (active)
FNTA (farnesyltransferase, CAAX box, subunit alpha)	1	1	65.2 (active)
FNTA (farnesyltransferase, CAAX box, subunit alpha)	1	2	39.1 (active)
FNTA (farnesyltransferase, CAAX box, subunit alpha)	1	3	40.5 (active)
ACVRL1 (activin A receptor like type 1)	1	1	50 (active)
ACVRL1 (activin A receptor like type 1)	1	2	51.5 (active)
ACVRL1 (activin A receptor like type 1)	1	3	48.5 (active)
PKMYT1 (protein kinase, membrane associated tyrosine/threonine 1)	1	1	34.3 (active)
PKMYT1 (protein kinase, membrane associated tyrosine/threonine 1)	1	2	48.9 (active)
PKMYT1 (protein kinase, membrane associated tyrosine/threonine 1)	1	3	59.4 (active)
CSF1R (colony stimulating factor 1 receptor)	1	1	52.5 (active)
CSF1R (colony stimulating factor 1 receptor)	1	2	56.2 (active)
CSF1R (colony stimulating factor 1 receptor)	1	3	49.7 (active)

3 of these entries, reformatted.
target gene | reagent | technical replicate | viability, normalised (%)
ABL2 (ABL proto-oncogene 2, non-receptor tyrosine kinase) | 1 | 2 | 53.5 (active)
ABL2 (ABL proto-oncogene 2, non-receptor tyrosine kinase) | 1 | 3 | 75.2 (active)
RPS6KC1 (ribosomal protein S6 kinase C1) | 1 | 1 | 58.9 (active)

Next reagents follow.
target gene	reagent	technical replicate	viability, normalised (%)
CTPS2 (CTP synthase 2)	1	1	67.8 (active)
CTPS2 (CTP synthase 2)	1	2	50.5 (active)
CTPS2 (CTP synthase 2)	1	3	81.3
TJP1 (tight junction protein 1)	1	1	42.7 (active)
TJP1 (tight junction protein 1)	1	2	47.6 (active)
TJP1 (tight junction protein 1)	1	3	61.8 (active)
ASH1L (ASH1 like histone lysine methyltransferase)	1	1	62.4 (active)
ASH1L (ASH1 like histone lysine methyltransferase)	1	2	75.6 (active)
ASH1L (ASH1 like histone lysine methyltransferase)	1	3	53.1 (active)
TEK (TEK receptor tyrosine kinase)	1	1	53.4 (active)
TEK (TEK receptor tyrosine kinase)	1	2	70.2 (active)
TEK (TEK receptor tyrosine kinase)	1	3	71.5 (active)
MAP4K5 (mitogen-activated protein kinase kinase kinase kinase 5)	1	1	62.3 (active)
MAP4K5 (mitogen-activated protein kinase kinase kinase kinase 5)	1	2	79.5 (active)
MAP4K5 (mitogen-activated protein kinase kinase kinase kinase 5)	1	3	53.8 (active)
MECOM (MDS1 and EVI1 complex locus)	1	1	48.7 (active)
MECOM (MDS1 and EVI1 complex locus)	1	2	51.7 (active)
MECOM (MDS1 and EVI1 complex locus)	1	3	54.9 (active)
MECOM (MDS1 and EVI1 complex locus)	2	1	18 (active)
MECOM (MDS1 and EVI1 complex locus)	2	2	28.2 (active)
MECOM (MDS1 and EVI1 complex locus)	2	3	26.2 (active)
METTL8 (methyltransferase 8, tRNA N3-cytidine)	1	1	28.5 (active)
METTL8 (methyltransferase 8, tRNA N3-cytidine)	1	2	31.1 (active)
METTL8 (methyltransferase 8, tRNA N3-cytidine)	1	3	36.8 (active)
MAPK4 (mitogen-activated protein kinase 4)	1	1	65.1 (active)
MAPK4 (mitogen-activated protein kinase 4)	1	2	86.9
MAPK4 (mitogen-activated protein kinase 4)	1	3	77.6 (active)
CLDN4 (claudin 4)	1	1	56.8 (active)
CLDN4 (claudin 4)	1	2	45.9 (active)
CLDN4 (claudin 4)	1	3	37.5 (active)
BAZ1A (bromodomain adjacent to zinc finger domain 1A)	1	1	65 (active)
BAZ1A (bromodomain adjacent to zinc finger domain 1A)	1	2	56.8 (active)
BAZ1A (bromodomain adjacent to zinc finger domain 1A)	1	3	49.3 (active)
